Data reported in article PMC10163288.
Some of the results follow.

B1: il2ra_site1_2b5i_normal_mot_HHH_b2_00525_af2_000000142_0001_43_56_H_._HHH_b1_08452_0001_0000600026_0000001_0_af2pred_dldesign_0_af2pred (protein)
chain: SSSSSSSRRATFERVARLLREAEEVSPEERARLLEEARRLAEEAKDNFLIRMVQSEEDALSSSSS
B2: il2ra_site1_3nfp_normal_mot_f36577d69a6146de1eed06bfb95d352c_0001_1_000000124_0001_19_34_H_._HHH_b1_00879_af2_0001_0000300028_0000001_0 (protein)
chain: SSSSDAQEFLEELVEEAFKRGDRNDLRHLIKALRHALERLGNPEAEELLREAEELLEELRSSSSS
B3: il2ra_site2_3nfp_sap_19_mot_HHH_b2_05281_000000198_0001_39_56_H_._HHH_b2_05437_0001_0000300008_0000001_0_0001 (protein)
chain: DDEEELEEKAEEAAKKNDPELALEVLQLAASDPEAWEKLEEVLEEKNNALLLYSLAAEALRRENS
B4: il2ra_site1_1z92_sap_15_mot_cda1634bf71a07e6bb6bfbc1e51fcdca_0001_000000010_0001_1_14_H_._HHH_b2_04762_af2_0001_0000200017_0000001_0_0001_af2pred_0001_af2pred_1 (protein)
chain: SSSSDERLKRNLERLVESAVKLAGLSEEQEEELRELAQELAERGVDFHEAARIVDELAARLSSSS
B5: il2ra_site1_2b5i_sap_16_mot_0e5a94e4a5addaac739760efb25f0f5d_0001_000000246_0001_18_32_H_._HHH_b1_06461_af2_0001_0000100006_0000001_1_0001_af2pred_dldesign_0_af … (protein)
chain: SSSSDEAFEEIERLYKEALRLFKQGKKEEAKEKLEEALKLAQAANDSVLVSELSRLLELLSSSSS
B6: il2ra_site2_2erj_normal_mot_HHH_b2_05866_000000027_0001_43_57_H_._HHH_b1_01868_af2_0001_0000700044_0000001_1 (protein)
chain: SSSSSEEYEFAARISLRAQELFKNGNPEEARELLEEAEEYLERRNNEEALRYIEFLLRDVSSSSS
B7: il2ra_site1_2b5i_normal_mot_HHH_b1_01419_af2_000000080_0001_42_53_H_._HHH_b2_03145_af2_0001_0000300010_0000001_0 (protein)
chain: SSSSDEVEQEVDELFLKASRLFLNGNPEEAEELLEEALRLAEENNDERAAEQVRFMLERLKSSSS
B8: il2ra_site1_3nfp_normal_mot_HHH_b2_08102_af2_000000255_0001_38_50_H_._HHH_b2_05157_0001_0000400017_0000001_0_af2pred_0001_af2pred (protein)
chain: SSSSDHLAREYTEWAKRRIRELLERGDEEAARRLLEKAKRSLEIAGDEEAVEELEKLYEELSSSS
B9: il2ra_site2_3nfp_normal_mot_HHH_b1_00660_af2_000000090_0001_40_57_H_._ems_3hM_3525_af2_0001_0000100004_0000001_1_af2pred_0001_1_af2pred_swapped (protein)
chain: SSSAEEIRELIHRLLLIAVERRDHELIIFVLEVLEEVERLLLKGDEEEAKEVAKEAKEEVEKKSS
B10: il2ra_site1_1z92_sap_20_mot_HHH_b1_03619_000000222_0001_22_39_H_._HHH_b2_05240_0001_0000400039_0000001_0_0001_af2pred_0001_af2pred_1 (protein)
chain: DLLEKLEELLEEENDPALEVLRTLEKLAEEGDPAAKFMLEQIEKKLELGDPEAVKKLLERALRSI
B11: il2ra_site1_1z92_normal_mot_57fbbab2d607e533440bfb1b251026a3_0001_af2_000000189_0001_1_16_H_._HHH_b1_08204_0001_0000300017_0000001_1_1_af2pred_dldesign_0_af2pre … (protein)
chain: SSSSSSQELLDEAKERVAEYKRTRDPALRRETLEFINEAHQKAEDEEVQDKLYELYKELSSSSSS
B12: il2ra_site2_3nfp_sap_11_mot_HHH_b1_00660_af2_000000090_0001_40_57_H_._HHH_b1_02627_0001_0000100013_0000001_0_0001 (protein)
chain: SSSSSEEEKEVEELVREAERLEEEGNPEEARKILKEAALIAAQNRDFELFVAVLELLSKILSSSS
B13: il2ra_site2_3nfp_normal_mot_HHH_b1_05627_af2_000000038_0001_43_56_H_._HHH_b1_03892_af2_0001_0000100002_0000001_0 (protein)
chain: SSSSDKAEEYLKIALEILRLALEFGDEESIRNHLEAVELAAELLNDEEAEELVEEVRKRLSSSSS
B14: il2ra_site1_3nfp_normal_mot_HHH_b1_07204_af2_000000238_0001_41_55_H_._6a77b3dc8dec33c5384193294071f013_0001_0001_0000300016_0000001_0 (protein)
chain: EDRIARRLIEDLLNIPPEAVERLLEVLKKLIKEGDPEYEEELKELIEELLNVPPERARRLVKLLK
B15: il2ra_site1_3nfp_sap_17_mot_1dfc56a8f07a39e834a69883c800ee5d_0001_1_af2_000000099_0001_1_15_H_._b24aaf5b6f53f31ef722bfa630a8caa2_0001_0001_0000200019_0000001_0_ … (protein)
chain: SSSSSVRKFLRIAKQIQKLLNEGDPEEAEELLEELEELAKERGSRLARRLVEILEKQIKNRSSSS
B16: il2ra_site1_3nfp_normal_mot_HHH_b1_01231_af2_000000170_0001_1_16_H_._HHH_b1_02076_0001_0000200037_0000001_0_af2pred_0001_af2pred (protein)
chain: SSSSSSDEELRLKLRVLRLLVRITDPEEARRVLEEAEELAKELGDERLLEELERLLKLLGSSSSS
B17: il2ra_site1_2b5i_normal_mot_HHH_b2_07442_af2_000000069_0001_1_16_H_._HHH_b1_07342_0001_0000300022_0000001_0 (protein)
chain: SSSSDDEEIDELFRQASQLFRKGDTEEARRLIEEALEIAEEQGDENQKRDLEFLLEQLKKASSSS
B18: il2ra_site2_3nfp_normal_mot_HHH_b1_00660_af2_000000090_0001_40_57_H_._HHH_b2_01268_0001_0000100009_0000001_0_af2pred_0001_af2pred (protein)
chain: SSSSSDEEEEEVRELLEEAKQIPDPEERERVLRKAALIAAEARNYELFALVLEVLEKLSSSSSSS
B19: il2ra_site2_3nfp_sap_22_mot_HHH_b2_04230_000000235_0001_39_52_H_._HHH_b2_04216_0001_0000300016_0000001_0_0001 (protein)
chain: SSSSSDDHEAYEQIVELLKRAAEIEDDEEVRRLLEEAKELAEEAGDRVLRRSIEDVEKALSSSSS

These binders were tested against il2ra, P01589 (assay: yeast display titration).

Apparent Kd, inactive:
B1 no binding seen
B2 no binding seen
B3 no binding seen
B4 no binding seen
B5 no binding seen
B6 no binding seen
B7 no binding seen
B8 no binding seen
B9 no binding seen
B10 no binding seen
B11 no binding seen
B12 no binding seen
B13 no binding seen
B14 no binding seen
B15 no binding seen
B16 no binding seen
B17 no binding seen
B18 no binding seen
B19 no binding seen

As a working copy, part of the list above:
Apparent Kd, inactive:
B9 no binding seen
B10 no binding seen
